Consider 5 molecules from PMC9688267.

Chains of the proteins cited; added tags and fusions are not shown.
UniProt O35449: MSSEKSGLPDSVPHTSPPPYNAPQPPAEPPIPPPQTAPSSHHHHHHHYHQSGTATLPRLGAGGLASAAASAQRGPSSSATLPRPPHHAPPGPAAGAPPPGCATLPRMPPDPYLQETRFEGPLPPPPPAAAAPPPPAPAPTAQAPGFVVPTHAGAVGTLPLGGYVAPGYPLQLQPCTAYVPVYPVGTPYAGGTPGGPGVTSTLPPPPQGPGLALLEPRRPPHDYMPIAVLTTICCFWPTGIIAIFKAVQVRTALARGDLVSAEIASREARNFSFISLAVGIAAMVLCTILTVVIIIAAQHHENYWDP
UniProt O88602: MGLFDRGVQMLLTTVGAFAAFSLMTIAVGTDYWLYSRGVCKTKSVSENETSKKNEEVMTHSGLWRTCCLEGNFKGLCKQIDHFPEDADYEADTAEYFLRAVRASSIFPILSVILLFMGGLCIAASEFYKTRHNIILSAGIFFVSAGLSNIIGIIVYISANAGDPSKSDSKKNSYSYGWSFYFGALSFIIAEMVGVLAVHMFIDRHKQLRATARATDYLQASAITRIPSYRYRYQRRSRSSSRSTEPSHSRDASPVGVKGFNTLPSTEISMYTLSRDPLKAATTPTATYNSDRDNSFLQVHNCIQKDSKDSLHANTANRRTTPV

Test [1] concerns the target Synapse differentiation-induced protein 4 (mouse (endogenous in hippocampus)) (UniProt O35449). The test can be described thus: affinity purification with mass spectrometry; IP with anti-TARP-γ2/(4)/8 or anti-SynDIG4 from wildtype mouse hippocampus extract; antibody epitope blocking and empty bead controls; n = 2 per antibody.
Test [2] has as its target T1, Transmembrane AMPAR regulatory protein gamma-8 (mouse (endogenous in hippocampus)) (UniProt Q8VHW2).
T1 sequence: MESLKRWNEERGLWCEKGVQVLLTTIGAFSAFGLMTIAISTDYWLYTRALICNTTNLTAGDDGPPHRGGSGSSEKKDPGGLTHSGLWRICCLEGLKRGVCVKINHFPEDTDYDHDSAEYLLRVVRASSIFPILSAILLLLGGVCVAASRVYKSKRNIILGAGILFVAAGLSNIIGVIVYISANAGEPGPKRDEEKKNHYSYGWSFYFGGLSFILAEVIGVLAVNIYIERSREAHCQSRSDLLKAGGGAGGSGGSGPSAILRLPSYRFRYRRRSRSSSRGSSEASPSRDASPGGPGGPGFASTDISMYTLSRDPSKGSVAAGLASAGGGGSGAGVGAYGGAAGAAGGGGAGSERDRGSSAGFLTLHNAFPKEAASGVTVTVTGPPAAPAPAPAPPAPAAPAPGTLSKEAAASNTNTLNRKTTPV
The test is described as above.

Test [3] has as its target Synapse differentiation-induced protein 4 (mouse (endogenous in hippocampus)) (UniProt O35449). The test can be described thus: affinity purification with mass spectrometry + native gel or EMSA; IP-BN-PAGE-MS: IP with anti-TARP-γ2/8 or anti-SynDIG4 from 30 mg hippocampus P2+M, elution with epitope peptide, 3–12% Blue Native PAGE at 4 °C, 70 slices analysed by MS; co-migration above the 720 kDa marker. On the technique in general: Mobility shift assays separate free from complexed probe on a gel.

No constants are given. Whether binding was seen depends on the method and setting. Binding seen in cells or lysates may run through a third protein. Here binding means that the protein was enriched with, or labelled near, the bait; the list need not be complete.

Turning to “Transmembrane AMPAR regulatory protein gamma-2 (from UniProt O88602 1-323)”, in test [1], the binding entry is reported as “binds”.

B1: Cornichon homolog 2 (protein, UniProt O35089 1-160)
chain: MAFTFAAFCYMLTLVLCASLIFFVIWHIIAFDELRTDFKNPIDQGNPARARERLKNIERICCLLRKLVVPEYSIHGLFCLMFLCAAEWVTLGLNIPLLFYHLWRYFHRPADGSEVMYDAVSIMNADILNYCQKESWCKLAFYLLSFFYYLYSMVYTLVSF
As to B1, the binding entry in test [2] is listed as “binds”.

B2: Transmembrane AMPAR regulatory protein gamma-8 (protein, UniProt Q8VHW2 1-423)
chain: T1 sequence
B2: the binding entry in test [1] and in test [3] was “binds” throughout.

B3: Ras-related protein Rap-2b (protein, UniProt P61226 1-183)
chain: MREYKVVVLGSGGVGKSALTVQFVTGSFIEKYDPTIEDFYRKEIEVDSSPSVLEILDTAGTEQFASMRDLYIKNGQGFILVYSLVNQQSFQDIKPMRDQIIRVKRYERVPMILVGNKVDLEGEREVSYGEGKALAEEWSCPFMETSAKNKASVDELFAEIVRQMNYAAQPNGDEGCCSACVIL
Turning to B3, in test [1], the binding entry is listed as “binds”.

B4: Cornichon homolog 3 (protein, UniProt Q6ZWS4 1-160)
chain: MAFTFAAFCYMLSLVLCAALIFFAIWHIIAFDELRTDFKSPIDQCNPVHARERLRNIERICFLLRKLVLPEYSIHSLFCIMFLCAQEWLTLGLNVPLLFYHFWRYFHCPADSSELAYDPPVVMNADTLSYCQKEAWCKLAFYLLSFFYYLYCMIYTLVSS
On to B4, for which the binding result in test [2] and in test [1] was “binds” in each case.
